# Results reported in the supplement of paper PMC12067093, “Discovery and optimisation of a covalent ligand for TRIM25 and its application to targeted protein ubiquitination” (Chemical Science, 2025).
# Protein sequences, listed by entry. Tags and fused reporters are not part of them. Lines headed by an entry give the natural chain unless they say otherwise; changes in a name come on top.
# UniProt O94913, whole entry, looked up: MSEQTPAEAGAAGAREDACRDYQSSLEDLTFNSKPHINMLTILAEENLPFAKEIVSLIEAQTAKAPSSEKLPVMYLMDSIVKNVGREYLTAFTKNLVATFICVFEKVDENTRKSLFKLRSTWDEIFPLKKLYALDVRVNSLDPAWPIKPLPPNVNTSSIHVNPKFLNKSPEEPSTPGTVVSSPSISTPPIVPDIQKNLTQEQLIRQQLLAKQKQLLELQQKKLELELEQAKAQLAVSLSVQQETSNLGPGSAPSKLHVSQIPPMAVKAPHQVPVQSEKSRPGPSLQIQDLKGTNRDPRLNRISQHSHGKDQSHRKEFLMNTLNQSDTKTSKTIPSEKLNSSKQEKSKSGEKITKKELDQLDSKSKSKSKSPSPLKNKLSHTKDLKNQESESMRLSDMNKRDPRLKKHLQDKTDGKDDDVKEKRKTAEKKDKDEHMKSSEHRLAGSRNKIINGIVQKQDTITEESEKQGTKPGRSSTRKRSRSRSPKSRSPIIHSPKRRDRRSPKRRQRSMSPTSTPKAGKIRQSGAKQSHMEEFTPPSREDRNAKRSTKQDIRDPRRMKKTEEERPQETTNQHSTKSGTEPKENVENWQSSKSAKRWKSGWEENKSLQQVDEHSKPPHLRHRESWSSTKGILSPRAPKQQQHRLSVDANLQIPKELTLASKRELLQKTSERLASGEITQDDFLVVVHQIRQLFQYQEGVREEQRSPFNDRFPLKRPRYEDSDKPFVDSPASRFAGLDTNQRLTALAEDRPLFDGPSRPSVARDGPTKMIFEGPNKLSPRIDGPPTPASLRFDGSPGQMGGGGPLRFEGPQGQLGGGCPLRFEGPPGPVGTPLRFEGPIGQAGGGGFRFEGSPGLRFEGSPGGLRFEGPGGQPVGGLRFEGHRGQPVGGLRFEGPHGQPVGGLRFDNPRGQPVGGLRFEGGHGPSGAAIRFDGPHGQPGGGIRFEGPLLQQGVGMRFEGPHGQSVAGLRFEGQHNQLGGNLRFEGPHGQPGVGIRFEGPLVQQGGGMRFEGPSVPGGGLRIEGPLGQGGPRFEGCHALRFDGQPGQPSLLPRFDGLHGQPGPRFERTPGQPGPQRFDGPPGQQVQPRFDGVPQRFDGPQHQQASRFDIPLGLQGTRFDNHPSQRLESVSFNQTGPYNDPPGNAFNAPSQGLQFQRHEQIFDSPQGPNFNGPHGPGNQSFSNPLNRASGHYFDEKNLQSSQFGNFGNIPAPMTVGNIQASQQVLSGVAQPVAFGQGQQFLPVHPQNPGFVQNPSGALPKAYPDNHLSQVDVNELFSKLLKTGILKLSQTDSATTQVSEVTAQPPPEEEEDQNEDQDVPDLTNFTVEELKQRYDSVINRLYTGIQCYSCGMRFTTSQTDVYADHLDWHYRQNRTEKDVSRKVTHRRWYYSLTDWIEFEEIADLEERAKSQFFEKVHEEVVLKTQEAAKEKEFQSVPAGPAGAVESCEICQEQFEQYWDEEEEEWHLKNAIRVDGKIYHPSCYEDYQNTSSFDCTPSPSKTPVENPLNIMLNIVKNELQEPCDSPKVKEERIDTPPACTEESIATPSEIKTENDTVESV
# UniProt Q14554: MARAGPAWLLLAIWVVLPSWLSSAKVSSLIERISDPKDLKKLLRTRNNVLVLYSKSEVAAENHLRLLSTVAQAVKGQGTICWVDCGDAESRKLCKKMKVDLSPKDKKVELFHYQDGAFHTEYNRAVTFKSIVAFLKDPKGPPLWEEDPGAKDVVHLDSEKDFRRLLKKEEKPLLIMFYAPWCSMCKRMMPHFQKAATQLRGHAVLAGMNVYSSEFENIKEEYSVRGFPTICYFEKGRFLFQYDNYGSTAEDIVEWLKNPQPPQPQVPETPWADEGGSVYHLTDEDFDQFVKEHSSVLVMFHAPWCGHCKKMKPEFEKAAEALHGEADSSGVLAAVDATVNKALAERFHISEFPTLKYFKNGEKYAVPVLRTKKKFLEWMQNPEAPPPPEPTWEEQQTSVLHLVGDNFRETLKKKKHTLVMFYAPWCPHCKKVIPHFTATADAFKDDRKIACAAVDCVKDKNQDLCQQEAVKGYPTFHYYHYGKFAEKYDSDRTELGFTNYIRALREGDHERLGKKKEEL
# UniProt P05165: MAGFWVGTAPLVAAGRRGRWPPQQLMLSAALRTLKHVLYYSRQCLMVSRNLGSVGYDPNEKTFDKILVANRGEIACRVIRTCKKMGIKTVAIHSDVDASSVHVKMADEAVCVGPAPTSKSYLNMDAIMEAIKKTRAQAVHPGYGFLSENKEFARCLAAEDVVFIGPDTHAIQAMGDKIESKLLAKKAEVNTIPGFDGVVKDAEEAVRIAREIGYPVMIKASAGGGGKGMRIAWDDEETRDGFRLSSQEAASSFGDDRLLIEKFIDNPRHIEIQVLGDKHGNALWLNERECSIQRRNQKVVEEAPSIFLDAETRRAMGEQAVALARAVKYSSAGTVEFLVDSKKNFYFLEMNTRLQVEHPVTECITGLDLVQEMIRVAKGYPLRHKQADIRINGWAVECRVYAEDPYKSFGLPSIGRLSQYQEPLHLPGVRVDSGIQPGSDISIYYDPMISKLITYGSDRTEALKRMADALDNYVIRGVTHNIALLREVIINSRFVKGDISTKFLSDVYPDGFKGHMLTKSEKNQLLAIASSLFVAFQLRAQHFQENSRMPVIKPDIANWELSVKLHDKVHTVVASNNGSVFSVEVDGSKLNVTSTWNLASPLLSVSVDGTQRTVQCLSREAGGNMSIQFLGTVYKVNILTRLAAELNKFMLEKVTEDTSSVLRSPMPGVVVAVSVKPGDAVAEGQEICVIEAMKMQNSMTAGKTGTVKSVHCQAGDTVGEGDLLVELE
# UniProt P30101, whole entry, looked up: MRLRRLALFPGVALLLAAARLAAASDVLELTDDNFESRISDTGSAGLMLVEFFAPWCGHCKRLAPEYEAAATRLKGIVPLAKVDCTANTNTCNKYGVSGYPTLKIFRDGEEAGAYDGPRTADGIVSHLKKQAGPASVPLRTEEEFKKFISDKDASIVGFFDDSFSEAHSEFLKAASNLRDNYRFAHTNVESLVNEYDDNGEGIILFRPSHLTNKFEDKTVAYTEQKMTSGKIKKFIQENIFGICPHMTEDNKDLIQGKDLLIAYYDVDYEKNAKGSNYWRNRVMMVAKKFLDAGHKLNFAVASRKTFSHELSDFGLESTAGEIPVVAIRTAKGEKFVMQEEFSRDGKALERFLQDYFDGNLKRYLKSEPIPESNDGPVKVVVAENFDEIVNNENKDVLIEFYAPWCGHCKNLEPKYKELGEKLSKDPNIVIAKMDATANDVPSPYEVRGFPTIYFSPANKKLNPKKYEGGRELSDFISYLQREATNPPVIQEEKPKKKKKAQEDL
# UniProt Q16822, whole entry, looked up: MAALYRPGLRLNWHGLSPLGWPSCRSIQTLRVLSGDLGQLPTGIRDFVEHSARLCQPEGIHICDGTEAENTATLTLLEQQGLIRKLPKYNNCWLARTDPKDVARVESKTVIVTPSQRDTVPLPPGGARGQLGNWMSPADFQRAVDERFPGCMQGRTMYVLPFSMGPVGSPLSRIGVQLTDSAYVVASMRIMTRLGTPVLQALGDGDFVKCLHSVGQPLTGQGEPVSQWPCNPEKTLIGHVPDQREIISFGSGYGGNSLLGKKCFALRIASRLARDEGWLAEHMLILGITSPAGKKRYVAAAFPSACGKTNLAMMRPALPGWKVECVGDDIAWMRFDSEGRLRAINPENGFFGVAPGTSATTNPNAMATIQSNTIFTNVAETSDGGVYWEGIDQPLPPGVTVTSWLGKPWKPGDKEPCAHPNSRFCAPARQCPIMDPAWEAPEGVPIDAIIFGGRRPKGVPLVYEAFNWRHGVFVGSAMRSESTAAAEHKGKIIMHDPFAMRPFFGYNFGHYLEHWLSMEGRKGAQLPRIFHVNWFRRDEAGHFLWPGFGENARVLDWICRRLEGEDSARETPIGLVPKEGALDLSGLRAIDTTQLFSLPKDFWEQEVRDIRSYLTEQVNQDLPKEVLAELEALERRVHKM
# UniProt Q5JVF3: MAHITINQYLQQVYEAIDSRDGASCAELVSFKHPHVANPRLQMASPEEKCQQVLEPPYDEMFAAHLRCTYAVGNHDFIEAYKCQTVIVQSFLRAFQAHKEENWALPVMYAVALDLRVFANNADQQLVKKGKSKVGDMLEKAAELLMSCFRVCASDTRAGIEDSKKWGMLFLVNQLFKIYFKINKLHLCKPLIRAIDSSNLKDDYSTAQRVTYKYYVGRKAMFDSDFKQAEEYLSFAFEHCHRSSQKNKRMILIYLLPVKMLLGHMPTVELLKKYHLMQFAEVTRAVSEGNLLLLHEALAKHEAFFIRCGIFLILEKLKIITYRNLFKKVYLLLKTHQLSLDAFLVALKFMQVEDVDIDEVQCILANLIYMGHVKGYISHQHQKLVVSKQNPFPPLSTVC
# UniProt P22061: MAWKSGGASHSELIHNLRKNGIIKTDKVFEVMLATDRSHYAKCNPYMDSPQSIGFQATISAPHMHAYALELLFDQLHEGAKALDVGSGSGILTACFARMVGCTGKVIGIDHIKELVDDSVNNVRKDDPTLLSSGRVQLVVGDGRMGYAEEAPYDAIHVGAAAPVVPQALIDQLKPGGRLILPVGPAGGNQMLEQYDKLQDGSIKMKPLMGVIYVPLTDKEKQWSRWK
# UniProt Q86U86, whole entry, looked up: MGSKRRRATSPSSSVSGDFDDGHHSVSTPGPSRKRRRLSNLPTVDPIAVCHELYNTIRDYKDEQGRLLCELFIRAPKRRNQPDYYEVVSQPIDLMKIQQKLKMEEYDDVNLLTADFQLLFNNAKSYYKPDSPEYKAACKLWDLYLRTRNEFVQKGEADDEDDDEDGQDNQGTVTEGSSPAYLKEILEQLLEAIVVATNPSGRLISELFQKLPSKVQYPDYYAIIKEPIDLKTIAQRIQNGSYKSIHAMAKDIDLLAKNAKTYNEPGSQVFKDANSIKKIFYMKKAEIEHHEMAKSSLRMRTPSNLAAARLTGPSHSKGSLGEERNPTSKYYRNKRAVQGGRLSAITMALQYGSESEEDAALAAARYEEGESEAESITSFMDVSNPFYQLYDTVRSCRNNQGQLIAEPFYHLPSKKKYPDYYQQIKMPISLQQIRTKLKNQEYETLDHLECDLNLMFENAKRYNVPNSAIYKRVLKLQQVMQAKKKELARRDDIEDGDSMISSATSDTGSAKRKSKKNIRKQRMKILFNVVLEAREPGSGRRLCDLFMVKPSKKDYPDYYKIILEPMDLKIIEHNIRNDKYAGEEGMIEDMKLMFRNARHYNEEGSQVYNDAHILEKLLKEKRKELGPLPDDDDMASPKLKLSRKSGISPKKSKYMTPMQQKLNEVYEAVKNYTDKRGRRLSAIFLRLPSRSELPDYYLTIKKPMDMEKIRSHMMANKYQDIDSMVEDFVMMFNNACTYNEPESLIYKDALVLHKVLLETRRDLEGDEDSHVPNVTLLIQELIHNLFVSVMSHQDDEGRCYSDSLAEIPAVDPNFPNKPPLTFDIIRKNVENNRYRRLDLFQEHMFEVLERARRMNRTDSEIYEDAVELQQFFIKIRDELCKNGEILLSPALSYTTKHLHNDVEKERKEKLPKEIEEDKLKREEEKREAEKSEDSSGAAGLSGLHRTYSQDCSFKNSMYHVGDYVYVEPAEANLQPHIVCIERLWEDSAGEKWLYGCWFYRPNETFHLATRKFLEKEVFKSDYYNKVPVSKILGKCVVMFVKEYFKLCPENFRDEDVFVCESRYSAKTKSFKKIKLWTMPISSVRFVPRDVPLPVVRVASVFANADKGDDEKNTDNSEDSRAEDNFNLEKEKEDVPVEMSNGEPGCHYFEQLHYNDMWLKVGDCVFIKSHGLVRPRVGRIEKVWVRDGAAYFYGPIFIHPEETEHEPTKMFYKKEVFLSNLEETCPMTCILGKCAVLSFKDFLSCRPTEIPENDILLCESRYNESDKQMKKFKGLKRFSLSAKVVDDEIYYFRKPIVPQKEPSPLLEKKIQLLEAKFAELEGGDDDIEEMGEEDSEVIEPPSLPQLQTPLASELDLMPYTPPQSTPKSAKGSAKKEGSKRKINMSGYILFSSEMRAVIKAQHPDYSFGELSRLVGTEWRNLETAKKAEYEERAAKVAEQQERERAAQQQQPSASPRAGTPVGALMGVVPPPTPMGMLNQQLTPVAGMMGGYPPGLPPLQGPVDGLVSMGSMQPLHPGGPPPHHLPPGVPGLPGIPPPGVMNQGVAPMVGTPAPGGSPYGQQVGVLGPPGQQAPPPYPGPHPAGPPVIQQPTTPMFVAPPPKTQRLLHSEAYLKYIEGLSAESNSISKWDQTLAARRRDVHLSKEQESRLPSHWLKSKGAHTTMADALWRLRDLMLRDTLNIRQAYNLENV
# The list shows a part of the results.
# Compound: CC1Cc2ccccc2N1C(=O)C1CCCN(C1)C(=O)CCl (mixture of isomers) [TRIM25 ligand 11 (diastereomer mixture)]
# Experiment: probe-labelled cysteine peptide fold change vs DMSO (competition) (log2 fold change); higher = less target engagement (more negative = stronger competition)
# Details: THP-1, incubation time: 4 h
# 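Further: competitive chemoproteomic profiling in live THP-1 cells with an iodoacetamide desthiobiotin (IA-DTB) probe, comparing probe-labelled peptide intensities in compound-treated cells against DMSO-treated controls.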
Target,probe-labelled cysteine peptide fold change (10 µM),probe-labelled cysteine peptide fold change (50 µM)
PDIA4_P13667_91+94_DTVLLEFYAPWCGHCK (UniProt P13667),-0.0279,-0.235
PARP9_Q8IXQ6_82_QLCEVLQNK (UniProt Q8IXQ6),-0.215,-0.188
PCF11_O94913_1346_LYTGIQCYSCGMR (UniProt O94913),0.0928,0.0469
PCNT_O95613_357_DLCLENLR (UniProt O95613),0.0333,0.195
PDIA5_Q14554_451_IACAAVDCVK (UniProt Q14554),-0.156,-0.14
PCCA_P05165_398_INGWAVECR (UniProt P05165),0.178,0.32
PDIA3_P30101_244_KFIQENIFGICPHMTEDNK (UniProt P30101),-0.0149,-0.195
PDS5B_Q9NTI5_333_FNDIHVPIRLECVK (UniProt Q9NTI5),-0.124,-0.15
PCK2_Q16822_417_PWKPGDKEPCAHPNSR (UniProt Q16822),-0.0284,-0.0772
PDIA3_P30101_92_VDCTANTNTCNK (UniProt P30101),0.0305,0.111
PCID2_Q5JVF3_25_DGASCAELVSFK (UniProt Q5JVF3),-0.115,-0.0805
PCMT1_P22061_102_MVGCTGK (UniProt P22061),-0.232,-0.112
PBRM1_Q86U86_1228_EVFLSNLEETCPMTCILGK (UniProt Q86U86),-0.0974,0.115
PCYOX1L_Q8NBM8_250_LVCSGLLK (UniProt Q8NBM8),0.118,0.23
PDE3B_Q13370_1059_IFCQLMHHLTENHK (UniProt Q13370),-0.105,-0.231

# Reformatted: results already given.
Target	probe-labelled cysteine peptide fold change (10 µM)	probe-labelled cysteine peptide fold change (50 µM)
PCK2_Q16822_417_PWKPGDKEPCAHPNSR (UniProt Q16822)	-0.0284	-0.0772
PDIA3_P30101_92_VDCTANTNTCNK (UniProt P30101)	0.0305	0.111
PCID2_Q5JVF3_25_DGASCAELVSFK (UniProt Q5JVF3)	-0.115	-0.0805
